# From the supplement of paper PMC12819154, “High-throughput peptide-centric local stability assay extends protein–ligand identification to membrane proteins, tissues and bacteria” (Nature Structural & Molecular Biology, 2025)
# By UniProt entry, the sequences of proteins in these tests, tags left out. Where a name states a change or a piece, a line headed by the entry shows the natural chain unless it says otherwise.
# UniProt Q96N21: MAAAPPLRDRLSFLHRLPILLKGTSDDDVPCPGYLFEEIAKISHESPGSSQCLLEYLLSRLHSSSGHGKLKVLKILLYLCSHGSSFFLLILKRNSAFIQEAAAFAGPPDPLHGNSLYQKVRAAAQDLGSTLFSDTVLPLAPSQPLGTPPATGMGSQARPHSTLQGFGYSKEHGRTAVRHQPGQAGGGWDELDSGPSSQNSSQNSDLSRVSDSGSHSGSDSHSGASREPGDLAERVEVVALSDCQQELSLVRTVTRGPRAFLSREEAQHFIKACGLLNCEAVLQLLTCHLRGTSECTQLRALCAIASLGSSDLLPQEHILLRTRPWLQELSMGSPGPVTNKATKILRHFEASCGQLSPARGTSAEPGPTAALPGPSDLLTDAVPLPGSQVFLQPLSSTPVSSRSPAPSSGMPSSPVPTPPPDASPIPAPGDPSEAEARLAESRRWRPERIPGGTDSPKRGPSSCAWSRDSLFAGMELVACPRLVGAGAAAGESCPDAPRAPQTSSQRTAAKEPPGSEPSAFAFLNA
# UniProt Q96PG8: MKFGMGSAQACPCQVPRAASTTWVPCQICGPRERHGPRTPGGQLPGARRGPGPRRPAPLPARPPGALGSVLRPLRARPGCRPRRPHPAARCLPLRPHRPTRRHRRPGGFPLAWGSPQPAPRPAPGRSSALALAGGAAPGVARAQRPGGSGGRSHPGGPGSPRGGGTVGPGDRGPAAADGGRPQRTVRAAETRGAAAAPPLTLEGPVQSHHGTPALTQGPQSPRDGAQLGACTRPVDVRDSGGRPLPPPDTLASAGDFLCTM
# UniProt Q96QR8: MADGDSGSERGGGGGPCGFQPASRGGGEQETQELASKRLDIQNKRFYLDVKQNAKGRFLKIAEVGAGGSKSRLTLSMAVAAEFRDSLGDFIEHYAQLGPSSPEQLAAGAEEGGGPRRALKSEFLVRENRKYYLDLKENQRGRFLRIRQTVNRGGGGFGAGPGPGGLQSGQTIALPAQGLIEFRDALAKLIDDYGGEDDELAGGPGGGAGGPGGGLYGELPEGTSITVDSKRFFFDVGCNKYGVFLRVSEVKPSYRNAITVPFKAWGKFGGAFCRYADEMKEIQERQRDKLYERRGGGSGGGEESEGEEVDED
# UniProt Q96PQ6: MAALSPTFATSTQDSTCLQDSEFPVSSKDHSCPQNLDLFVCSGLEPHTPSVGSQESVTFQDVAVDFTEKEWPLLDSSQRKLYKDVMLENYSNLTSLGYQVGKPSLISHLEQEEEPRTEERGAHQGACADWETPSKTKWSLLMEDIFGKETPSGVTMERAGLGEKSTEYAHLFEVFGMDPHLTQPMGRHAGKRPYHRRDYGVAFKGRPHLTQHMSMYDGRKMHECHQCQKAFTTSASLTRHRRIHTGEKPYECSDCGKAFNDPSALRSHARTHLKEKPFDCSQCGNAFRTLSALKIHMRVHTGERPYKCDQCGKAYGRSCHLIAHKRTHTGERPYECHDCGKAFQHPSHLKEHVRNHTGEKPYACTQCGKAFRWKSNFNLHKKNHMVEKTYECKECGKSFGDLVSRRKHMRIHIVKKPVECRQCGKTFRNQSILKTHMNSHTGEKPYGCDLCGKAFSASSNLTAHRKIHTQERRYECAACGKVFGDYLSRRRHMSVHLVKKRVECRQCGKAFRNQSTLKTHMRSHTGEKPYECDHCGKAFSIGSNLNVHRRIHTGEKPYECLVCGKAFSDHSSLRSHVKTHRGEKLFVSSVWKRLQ
# UniProt Q96K21: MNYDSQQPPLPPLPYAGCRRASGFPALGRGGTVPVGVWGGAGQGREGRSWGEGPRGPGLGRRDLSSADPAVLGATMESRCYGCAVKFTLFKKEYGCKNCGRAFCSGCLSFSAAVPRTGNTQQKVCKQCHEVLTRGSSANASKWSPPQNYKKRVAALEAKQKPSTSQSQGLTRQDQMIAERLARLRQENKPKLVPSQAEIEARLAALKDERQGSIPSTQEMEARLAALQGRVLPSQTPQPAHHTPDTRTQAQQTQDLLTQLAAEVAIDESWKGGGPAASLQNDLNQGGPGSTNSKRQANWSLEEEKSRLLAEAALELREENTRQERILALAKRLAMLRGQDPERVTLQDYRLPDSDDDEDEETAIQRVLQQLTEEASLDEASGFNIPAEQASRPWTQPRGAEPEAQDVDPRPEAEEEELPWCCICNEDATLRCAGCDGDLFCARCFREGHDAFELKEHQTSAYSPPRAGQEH
# UniProt Q96IK1: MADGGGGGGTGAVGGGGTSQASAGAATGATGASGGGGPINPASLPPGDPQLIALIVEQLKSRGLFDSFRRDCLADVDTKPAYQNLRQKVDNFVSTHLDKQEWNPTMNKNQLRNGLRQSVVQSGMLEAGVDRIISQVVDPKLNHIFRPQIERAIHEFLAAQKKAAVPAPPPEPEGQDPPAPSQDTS
# UniProt Q96MH7: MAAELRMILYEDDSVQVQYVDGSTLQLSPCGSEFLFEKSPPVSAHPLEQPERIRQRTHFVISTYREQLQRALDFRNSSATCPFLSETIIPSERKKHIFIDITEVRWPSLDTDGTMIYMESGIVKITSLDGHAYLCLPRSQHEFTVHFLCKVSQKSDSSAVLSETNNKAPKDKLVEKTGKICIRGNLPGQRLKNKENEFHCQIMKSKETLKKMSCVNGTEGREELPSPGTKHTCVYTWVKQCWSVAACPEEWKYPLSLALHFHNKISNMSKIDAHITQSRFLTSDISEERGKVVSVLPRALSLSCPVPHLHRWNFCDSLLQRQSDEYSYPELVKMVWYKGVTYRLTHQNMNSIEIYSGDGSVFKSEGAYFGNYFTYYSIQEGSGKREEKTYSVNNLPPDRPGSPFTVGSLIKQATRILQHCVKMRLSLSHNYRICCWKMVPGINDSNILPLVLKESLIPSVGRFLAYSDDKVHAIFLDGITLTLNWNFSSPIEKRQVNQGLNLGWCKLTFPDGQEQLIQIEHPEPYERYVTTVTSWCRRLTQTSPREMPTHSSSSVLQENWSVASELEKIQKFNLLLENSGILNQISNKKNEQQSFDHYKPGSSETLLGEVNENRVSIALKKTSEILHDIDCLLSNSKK
# UniProt Q96MD7: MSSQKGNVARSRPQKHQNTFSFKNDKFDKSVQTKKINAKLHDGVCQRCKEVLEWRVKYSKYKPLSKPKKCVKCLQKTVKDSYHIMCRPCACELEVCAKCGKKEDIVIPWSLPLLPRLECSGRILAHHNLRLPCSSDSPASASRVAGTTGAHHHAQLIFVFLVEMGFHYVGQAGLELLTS
# UniProt Q96RU7: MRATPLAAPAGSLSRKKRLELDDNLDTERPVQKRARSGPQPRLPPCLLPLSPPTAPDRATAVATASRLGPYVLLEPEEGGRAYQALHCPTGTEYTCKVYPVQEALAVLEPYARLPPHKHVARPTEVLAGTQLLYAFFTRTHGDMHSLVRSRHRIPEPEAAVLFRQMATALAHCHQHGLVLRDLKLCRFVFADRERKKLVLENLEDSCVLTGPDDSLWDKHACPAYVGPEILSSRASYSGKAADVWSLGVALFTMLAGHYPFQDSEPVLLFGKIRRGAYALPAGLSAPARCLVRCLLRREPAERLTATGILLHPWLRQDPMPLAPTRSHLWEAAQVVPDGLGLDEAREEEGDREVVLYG
# UniProt Q96SD1, whole entry: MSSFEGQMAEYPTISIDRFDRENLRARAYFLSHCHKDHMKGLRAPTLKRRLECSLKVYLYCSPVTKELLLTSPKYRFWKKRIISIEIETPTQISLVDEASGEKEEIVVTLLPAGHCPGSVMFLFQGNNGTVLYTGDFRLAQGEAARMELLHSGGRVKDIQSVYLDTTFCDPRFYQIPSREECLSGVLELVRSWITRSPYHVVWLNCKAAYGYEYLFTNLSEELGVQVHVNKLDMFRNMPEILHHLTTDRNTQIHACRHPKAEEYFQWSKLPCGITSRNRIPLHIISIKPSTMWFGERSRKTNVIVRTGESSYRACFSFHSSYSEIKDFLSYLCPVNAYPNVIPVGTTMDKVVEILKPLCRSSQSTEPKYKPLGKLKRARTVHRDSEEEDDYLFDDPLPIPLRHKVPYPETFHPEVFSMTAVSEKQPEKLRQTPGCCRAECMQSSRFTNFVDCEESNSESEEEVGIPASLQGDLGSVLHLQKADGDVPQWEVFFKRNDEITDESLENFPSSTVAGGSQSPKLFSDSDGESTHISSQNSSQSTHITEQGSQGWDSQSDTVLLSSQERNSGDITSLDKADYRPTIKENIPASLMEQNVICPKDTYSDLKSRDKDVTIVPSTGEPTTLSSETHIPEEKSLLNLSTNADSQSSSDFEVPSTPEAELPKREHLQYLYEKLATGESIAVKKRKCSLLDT
# UniProt Q96N11, whole entry: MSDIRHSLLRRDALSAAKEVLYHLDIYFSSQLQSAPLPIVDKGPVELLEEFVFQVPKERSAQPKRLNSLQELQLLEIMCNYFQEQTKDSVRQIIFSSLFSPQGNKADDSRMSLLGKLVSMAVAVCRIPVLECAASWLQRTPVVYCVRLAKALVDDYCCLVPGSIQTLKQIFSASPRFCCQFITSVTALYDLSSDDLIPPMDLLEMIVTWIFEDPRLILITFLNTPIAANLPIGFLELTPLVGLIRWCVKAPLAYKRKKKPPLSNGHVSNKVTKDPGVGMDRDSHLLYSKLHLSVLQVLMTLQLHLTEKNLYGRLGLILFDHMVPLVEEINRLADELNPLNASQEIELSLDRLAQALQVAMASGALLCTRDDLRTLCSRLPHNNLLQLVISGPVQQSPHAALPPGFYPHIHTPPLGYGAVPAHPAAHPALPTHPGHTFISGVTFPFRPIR
# UniProt Q99417: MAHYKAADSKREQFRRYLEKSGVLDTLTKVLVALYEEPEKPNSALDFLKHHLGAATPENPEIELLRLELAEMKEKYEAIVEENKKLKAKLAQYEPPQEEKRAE
# UniProt Q96IU4: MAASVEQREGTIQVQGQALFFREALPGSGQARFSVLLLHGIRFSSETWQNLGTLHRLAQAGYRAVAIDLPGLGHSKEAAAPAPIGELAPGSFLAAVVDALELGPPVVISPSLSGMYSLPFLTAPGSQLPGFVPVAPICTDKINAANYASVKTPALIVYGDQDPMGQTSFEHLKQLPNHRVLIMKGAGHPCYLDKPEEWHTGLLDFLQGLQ
# UniProt Q96TC7: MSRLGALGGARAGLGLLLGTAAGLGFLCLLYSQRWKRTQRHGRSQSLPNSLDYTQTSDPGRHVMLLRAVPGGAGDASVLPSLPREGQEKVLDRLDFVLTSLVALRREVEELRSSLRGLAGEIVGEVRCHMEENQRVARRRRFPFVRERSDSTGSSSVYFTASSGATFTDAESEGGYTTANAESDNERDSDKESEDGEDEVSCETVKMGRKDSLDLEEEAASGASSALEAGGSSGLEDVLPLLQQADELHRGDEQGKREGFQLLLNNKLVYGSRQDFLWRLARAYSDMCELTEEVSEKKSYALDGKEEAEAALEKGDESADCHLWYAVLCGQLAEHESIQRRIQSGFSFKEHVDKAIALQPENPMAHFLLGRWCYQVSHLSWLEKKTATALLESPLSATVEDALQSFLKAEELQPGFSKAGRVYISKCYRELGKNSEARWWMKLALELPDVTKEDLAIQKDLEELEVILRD
# UniProt Q96KP4: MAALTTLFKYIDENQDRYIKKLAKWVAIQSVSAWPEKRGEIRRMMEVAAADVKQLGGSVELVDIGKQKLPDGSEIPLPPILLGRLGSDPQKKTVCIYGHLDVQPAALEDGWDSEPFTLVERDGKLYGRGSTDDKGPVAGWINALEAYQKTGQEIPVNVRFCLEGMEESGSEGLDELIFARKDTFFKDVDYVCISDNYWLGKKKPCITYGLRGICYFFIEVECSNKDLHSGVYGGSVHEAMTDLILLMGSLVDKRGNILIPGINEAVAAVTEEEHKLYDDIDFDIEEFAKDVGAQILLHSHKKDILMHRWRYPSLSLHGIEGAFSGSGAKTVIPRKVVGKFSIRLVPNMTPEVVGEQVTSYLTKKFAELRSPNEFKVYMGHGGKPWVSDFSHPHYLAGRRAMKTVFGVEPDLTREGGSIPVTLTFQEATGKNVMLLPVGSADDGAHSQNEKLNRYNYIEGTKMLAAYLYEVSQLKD
# UniProt Q96IV0: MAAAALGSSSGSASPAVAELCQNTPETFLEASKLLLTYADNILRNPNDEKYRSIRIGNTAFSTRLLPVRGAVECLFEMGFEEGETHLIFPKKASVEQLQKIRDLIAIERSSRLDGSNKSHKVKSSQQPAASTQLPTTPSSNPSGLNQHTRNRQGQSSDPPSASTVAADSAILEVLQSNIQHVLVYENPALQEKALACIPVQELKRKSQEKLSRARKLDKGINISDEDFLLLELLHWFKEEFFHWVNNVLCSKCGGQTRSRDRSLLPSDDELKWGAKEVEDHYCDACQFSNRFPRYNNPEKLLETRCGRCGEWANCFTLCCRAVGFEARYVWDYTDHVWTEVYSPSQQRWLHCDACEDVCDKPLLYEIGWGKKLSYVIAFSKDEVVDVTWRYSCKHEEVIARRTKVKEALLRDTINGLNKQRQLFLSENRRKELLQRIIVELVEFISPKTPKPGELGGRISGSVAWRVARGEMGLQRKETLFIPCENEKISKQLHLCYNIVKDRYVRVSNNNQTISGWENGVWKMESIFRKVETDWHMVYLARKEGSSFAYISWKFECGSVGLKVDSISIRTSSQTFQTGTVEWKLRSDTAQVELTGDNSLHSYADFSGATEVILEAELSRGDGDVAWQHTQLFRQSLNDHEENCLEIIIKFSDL
# Some of the results follow. Most values lie at the level of the controls, where differences are scatter.
# Compound: CN[C@@H]1C[C@H]2O[C@@](C)([C@@H]1OC)n1c3ccccc3c3c4c(c5c6ccccc6n2c5c31)C(=O)NC4 [staurosporine]
# Assay: log2 fold change of tryptic peptide abundance, ligand vs vehicle (limited proteolysis) (log2 ratio); higher = more trypsin-susceptible (destabilized)
# Conditions: ligand concentration: 20 uM; sample: K562 cleared lysate; digestion: 4 min, 22 C (HT-PELSA RT4min, Orbitrap Astral)
row,Target,log2 fold change
1,"SCYL1 (peptide sequence: VLTSAFSR, peptide start residue: 467) (UniProt Q96KG9)",0.341
2,"TRPM7 (peptide sequence: AALIPDWLQDRPSNR, peptide start residue: 1515) (UniProt Q96QT4)",0.307
3,"UniProt Q96N21 (peptide sequence: HFEASCGQLSPAR, peptide start residue: 347)",-0.592
4,"UniProt Q96PG8 (peptide sequence: DGAQLGACTRPVDVR, peptide start residue: 224)",-0.193
5,"PURB (peptide sequence: IAEVGAGGSK, peptide start residue: 61) (UniProt Q96QR8)",0.0715
6,"IWS1 (peptide sequence: KLTLLPAVVMHLK, peptide start residue: 587) (UniProt Q96ST2)",0.217
7,"SPATA33 (peptide sequence: HPPPAASLEEKPDVK, peptide start residue: 61) (UniProt Q96N06)",-0.517
8,"ZNF317 (peptide sequence: AFTTSASLTR, peptide start residue: 230) (UniProt Q96PQ6)",-0.352
9,"ZFYVE19 (peptide sequence: QKPSTSQSQGLTR, peptide start residue: 160) (UniProt Q96K21)",-0.273
10,"INPP4A (peptide sequence: EIIAQINTLK, peptide start residue: 413) (UniProt Q96PE3)",-0.657
11,"BOD1 (peptide sequence: QKVDNFVSTHLDKQEWNPTMNK, peptide start residue: 87) (UniProt Q96IK1)",0.604
12,"TESK2 (peptide sequence: TVSVLDPYYRPR, peptide start residue: 379) (UniProt Q96S53)",0.163
13,"C5orf34 (peptide sequence: FLTSDISEER, peptide start residue: 280) (UniProt Q96MH7)",0.196
14,"TOE1 (peptide sequence: TLFLELIR, peptide start residue: 175) (UniProt Q96GM8)",-0.126
15,"RBM15 (peptide sequence: TAATSVPAYEPLDSLDR, peptide start residue: 600) (UniProt Q96T37)",-0.371
16,"C9orf85 (peptide sequence: YKPLSKPK, peptide start residue: 61) (UniProt Q96MD7)",0.114
17,"PASK (peptide sequence: TLDPWQGQDPAEGGQDPR, peptide start residue: 421) (UniProt Q96RG2)",0.273
18,"TRIB3 (peptide sequence: RGAYALPAGLSAPAR, peptide start residue: 275) (UniProt Q96RU7)",-0.324
19,"DCLRE1C (peptide sequence: HKVPYPETFHPEVFSMTAVSEK, peptide start residue: 403) (UniProt Q96SD1)",0.4
20,"C7orf26 (peptide sequence: IPVLECAASWLQR, peptide start residue: 127) (UniProt Q96N11)",-0.295
21,"MYCBP (peptide sequence: SGVLDTLTK, peptide start residue: 21) (UniProt Q99417)",0.129
22,"CDK5RAP1 (peptide sequence: LAAGPTFQHFLK, peptide start residue: 59) (UniProt Q96SZ6)",0.176
23,"ABHD14B (peptide sequence: AVAIDLPGLGHSK, peptide start residue: 64) (UniProt Q96IU4)",0.262
24,"UniProt Q96J66 (peptide sequence: SSLGMALFR, peptide start residue: 1234)",-0.0555
25,"UniProt Q96TC7 (peptide sequence: AIALQPENPMAHFLLGR, peptide start residue: 355)",-0.0717
26,"CNDP2 (peptide sequence: TGQEIPVNVR, peptide start residue: 150) (UniProt Q96KP4)",0.553
27,"NGLY1 (peptide sequence: YSCKHEEVIAR, peptide start residue: 391) (UniProt Q96IV0)",0.315
28,"VPS13A (peptide sequence: ATETSEVESLRPPR, peptide start residue: 3027) (UniProt Q96RL7)",0.339

# An excerpt of these results, with bars between the fields:
row | Target | log2 fold change
14 | TOE1 (peptide sequence: TLFLELIR, peptide start residue: 175) (UniProt Q96GM8) | -0.126
15 | RBM15 (peptide sequence: TAATSVPAYEPLDSLDR, peptide start residue: 600) (UniProt Q96T37) | -0.371
16 | C9orf85 (peptide sequence: YKPLSKPK, peptide start residue: 61) (UniProt Q96MD7) | 0.114
17 | PASK (peptide sequence: TLDPWQGQDPAEGGQDPR, peptide start residue: 421) (UniProt Q96RG2) | 0.273
18 | TRIB3 (peptide sequence: RGAYALPAGLSAPAR, peptide start residue: 275) (UniProt Q96RU7) | -0.324
19 | DCLRE1C (peptide sequence: HKVPYPETFHPEVFSMTAVSEK, peptide start residue: 403) (UniProt Q96SD1) | 0.4
20 | C7orf26 (peptide sequence: IPVLECAASWLQR, peptide start residue: 127) (UniProt Q96N11) | -0.295
